Experimental data: PubChem BioAssay AID602196 (INSERM, 2012)
Test: 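Modifiers of cisplatin sensitivity in A549 cells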. System: human A549 lung cancer cells. Reagent: siRNA pair against human genes. Duration: 48 h transfection before cisplatin; time from cisplatin to read-out not stated. Challenge: cisplatin at a dose killing half of control-siRNA cells; exact dose and duration not given. Detection: 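Cisplatin cell death as a shift from the 50% death seen with control siRNA; siRNAs toxic or growth-blocking alone scored 0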. Reading the numbers: two-siRNA summed score (-2 to +2): higher = both siRNAs protect from cisplatin killing; -2 means both sensitise; mean protection from cisplatin (shift in death): higher = protection from cisplatin killing. Active means: 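Each siRNA scores 0 if harmful alone by LDH or WST-1, otherwise +1 if it reduces and -1 if it increases cisplatin killing; a gene is active when both siRNAs agree (sum +2 or -2)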. Meaning of the calls: active = both siRNAs shift cisplatin killing the same way; inactive = no consistent shift, or siRNA harmful alone.
Here is one part, drawn at random, of about 23,000 reagents tested. 455 of all reagents (2%) count as active. 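Active includes both protection and sensitisation; some change values fall well beyond the stated -50 to +50 range.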 Entries without a mark were called inactive. Further read-outs or replicates are left out here. Reagent sequences are not shown. Not stated in the record: the amount of reagent.

Depletion of SCN3A gave: two-siRNA summed score (-2 to +2) = 0; mean protection from cisplatin (shift in death) (%) = -2.4. MOSPD3 showed two-siRNA summed score (-2 to +2) = 0; mean protection from cisplatin (shift in death) (%) = 7.8. With knock-down of SPATA13, the record shows two-siRNA summed score (-2 to +2) = 0; mean protection from cisplatin (shift in death) (%) = 4.1. Against PCGF3, the entry reads two-siRNA summed score (-2 to +2) = 1; mean protection from cisplatin (shift in death) (%) = 10.3. Silencing of LOC440357 resulted in: two-siRNA summed score (-2 to +2) = 0; mean protection from cisplatin (shift in death) (%) = 0.5. SIRT4 gave two-siRNA summed score (-2 to +2) = -1; mean protection from cisplatin (shift in death) (%) = 2.1.

Against IL17RA the deposit lists two-siRNA summed score (-2 to +2) = 0; mean protection from cisplatin (shift in death) (%) = -2.5. POT1 scored two-siRNA summed score (-2 to +2) = 0; mean protection from cisplatin (shift in death) (%) = 5.2. Against POLE3, the values are two-siRNA summed score (-2 to +2) = 0; mean protection from cisplatin (shift in death) (%) = 5.3. For MMP12, the values are two-siRNA summed score (-2 to +2) = 0; mean protection from cisplatin (shift in death) (%) = 4.3. BBS12 showed two-siRNA summed score (-2 to +2) = 0; mean protection from cisplatin (shift in death) (%) = -0.7. After knock-down of CFAP43, the record shows two-siRNA summed score (-2 to +2) = 0; mean protection from cisplatin (shift in death) (%) = 0.6.

After knock-down of RNF144B, the screen gave two-siRNA summed score (-2 to +2) = 0; mean protection from cisplatin (shift in death) (%) = -4.2. SETD7 scored two-siRNA summed score (-2 to +2) = 1; mean protection from cisplatin (shift in death) (%) = 12.7. Knock-down of LOC126669 came out at: two-siRNA summed score (-2 to +2) = 0; mean protection from cisplatin (shift in death) (%) = 14.6. For TTC4, the entry reads two-siRNA summed score (-2 to +2) = -2 (active); mean protection from cisplatin (shift in death) (%) = -17.7. Depletion of LOC400799 came out at: two-siRNA summed score (-2 to +2) = 0; mean protection from cisplatin (shift in death) (%) = 10.9. Against B3GNT2, the entry reads two-siRNA summed score (-2 to +2) = 0; mean protection from cisplatin (shift in death) (%) = 4.6.

Knock-down of MRPS5 came out at: two-siRNA summed score (-2 to +2) = 0; mean protection from cisplatin (shift in death) (%) = -1.1. Against INPP5K, the values are two-siRNA summed score (-2 to +2) = 0; mean protection from cisplatin (shift in death) (%) = 12.9. Knock-down of LOC400757 resulted in: two-siRNA summed score (-2 to +2) = 0; mean protection from cisplatin (shift in death) (%) = 6.7. LCORL gave two-siRNA summed score (-2 to +2) = 0; mean protection from cisplatin (shift in death) (%) = 6.8. After knock-down of TMSB4Y, the screen gave two-siRNA summed score (-2 to +2) = 1; mean protection from cisplatin (shift in death) (%) = 10.9. Against LOC392487, the values are two-siRNA summed score (-2 to +2) = 0; mean protection from cisplatin (shift in death) (%) = 7.3.

With knock-down of LOC340499 the results were two-siRNA summed score (-2 to +2) = 0; mean protection from cisplatin (shift in death) (%) = 8. With knock-down of RUBCN, the record shows two-siRNA summed score (-2 to +2) = 1; mean protection from cisplatin (shift in death) (%) = 9.8. Depletion of KLRF1 gave: two-siRNA summed score (-2 to +2) = 0; mean protection from cisplatin (shift in death) (%) = 3.5. Depletion of LOC254027 resulted in: two-siRNA summed score (-2 to +2) = 0; mean protection from cisplatin (shift in death) (%) = 12.3. Against LOC400682 the deposit lists two-siRNA summed score (-2 to +2) = 0; mean protection from cisplatin (shift in death) (%) = 3.4. For LOC284422, the values are two-siRNA summed score (-2 to +2) = 0; mean protection from cisplatin (shift in death) (%) = 7.3.

Against PSG1, the entry reads two-siRNA summed score (-2 to +2) = 0; mean protection from cisplatin (shift in death) (%) = 7.4.

Entries listed above marked active, once more:
TTC4 | two-siRNA summed score (-2 to +2) = -2 (active); mean protection from cisplatin (shift in death) (%) = -17.7
